Experimental data as given in article PMC6362814.
Results are given in words; binding and its absence hold for the method and conditions named. Binding seen in cells or lysates may run through a third protein. Here binding means that the protein was enriched with, or labelled near, the bait; the list need not be complete. For part of these data: A no says only that the protein was not detected with the bait. Sequences can lack the tags named with a protein.

Amino acid sequences for entries named in this document (tags omitted).
UniProt Q9QZQ1: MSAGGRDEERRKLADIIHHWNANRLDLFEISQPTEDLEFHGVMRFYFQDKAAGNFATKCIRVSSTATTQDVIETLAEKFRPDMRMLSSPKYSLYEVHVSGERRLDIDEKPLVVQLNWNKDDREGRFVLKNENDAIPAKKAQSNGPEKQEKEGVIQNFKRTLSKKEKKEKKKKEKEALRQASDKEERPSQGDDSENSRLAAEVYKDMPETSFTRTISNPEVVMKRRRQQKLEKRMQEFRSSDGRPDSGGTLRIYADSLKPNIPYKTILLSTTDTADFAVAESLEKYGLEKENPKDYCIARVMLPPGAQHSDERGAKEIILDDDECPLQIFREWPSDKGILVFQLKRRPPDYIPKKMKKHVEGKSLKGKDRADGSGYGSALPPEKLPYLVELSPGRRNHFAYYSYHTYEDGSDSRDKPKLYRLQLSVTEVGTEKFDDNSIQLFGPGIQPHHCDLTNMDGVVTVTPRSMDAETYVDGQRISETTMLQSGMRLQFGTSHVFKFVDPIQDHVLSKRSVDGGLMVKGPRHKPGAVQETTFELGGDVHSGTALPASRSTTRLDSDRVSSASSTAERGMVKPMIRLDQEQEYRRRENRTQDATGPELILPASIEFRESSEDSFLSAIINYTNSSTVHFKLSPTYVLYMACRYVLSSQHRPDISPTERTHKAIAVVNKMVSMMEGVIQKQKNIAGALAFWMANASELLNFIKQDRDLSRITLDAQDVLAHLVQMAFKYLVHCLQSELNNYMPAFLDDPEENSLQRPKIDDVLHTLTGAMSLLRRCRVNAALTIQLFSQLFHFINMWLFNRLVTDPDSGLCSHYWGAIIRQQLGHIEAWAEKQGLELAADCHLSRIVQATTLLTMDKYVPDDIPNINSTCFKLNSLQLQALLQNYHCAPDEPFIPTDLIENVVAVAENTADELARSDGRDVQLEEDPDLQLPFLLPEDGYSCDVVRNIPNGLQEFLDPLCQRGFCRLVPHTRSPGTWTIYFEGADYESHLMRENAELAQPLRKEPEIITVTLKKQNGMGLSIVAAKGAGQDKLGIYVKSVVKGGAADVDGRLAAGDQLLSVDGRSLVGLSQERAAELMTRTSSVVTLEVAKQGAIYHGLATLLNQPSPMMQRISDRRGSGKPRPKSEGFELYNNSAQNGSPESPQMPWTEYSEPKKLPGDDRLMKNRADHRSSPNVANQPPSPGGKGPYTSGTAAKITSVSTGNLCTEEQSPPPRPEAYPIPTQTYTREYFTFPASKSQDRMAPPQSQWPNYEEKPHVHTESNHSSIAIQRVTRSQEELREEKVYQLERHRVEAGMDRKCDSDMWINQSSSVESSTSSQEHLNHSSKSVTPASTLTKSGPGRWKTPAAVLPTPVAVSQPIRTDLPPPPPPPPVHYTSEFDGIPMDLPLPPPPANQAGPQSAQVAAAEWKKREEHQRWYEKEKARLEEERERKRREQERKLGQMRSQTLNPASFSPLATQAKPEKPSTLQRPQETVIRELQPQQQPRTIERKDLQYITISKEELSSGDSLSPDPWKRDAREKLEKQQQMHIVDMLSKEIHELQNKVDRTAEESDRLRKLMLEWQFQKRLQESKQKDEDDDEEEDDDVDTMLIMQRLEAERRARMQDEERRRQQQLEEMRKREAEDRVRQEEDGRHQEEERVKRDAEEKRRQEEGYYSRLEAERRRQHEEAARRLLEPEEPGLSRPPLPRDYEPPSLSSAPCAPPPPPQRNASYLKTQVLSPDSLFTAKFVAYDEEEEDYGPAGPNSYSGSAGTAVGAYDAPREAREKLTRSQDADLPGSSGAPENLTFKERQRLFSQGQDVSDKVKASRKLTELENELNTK
UniProt Q6DFV3: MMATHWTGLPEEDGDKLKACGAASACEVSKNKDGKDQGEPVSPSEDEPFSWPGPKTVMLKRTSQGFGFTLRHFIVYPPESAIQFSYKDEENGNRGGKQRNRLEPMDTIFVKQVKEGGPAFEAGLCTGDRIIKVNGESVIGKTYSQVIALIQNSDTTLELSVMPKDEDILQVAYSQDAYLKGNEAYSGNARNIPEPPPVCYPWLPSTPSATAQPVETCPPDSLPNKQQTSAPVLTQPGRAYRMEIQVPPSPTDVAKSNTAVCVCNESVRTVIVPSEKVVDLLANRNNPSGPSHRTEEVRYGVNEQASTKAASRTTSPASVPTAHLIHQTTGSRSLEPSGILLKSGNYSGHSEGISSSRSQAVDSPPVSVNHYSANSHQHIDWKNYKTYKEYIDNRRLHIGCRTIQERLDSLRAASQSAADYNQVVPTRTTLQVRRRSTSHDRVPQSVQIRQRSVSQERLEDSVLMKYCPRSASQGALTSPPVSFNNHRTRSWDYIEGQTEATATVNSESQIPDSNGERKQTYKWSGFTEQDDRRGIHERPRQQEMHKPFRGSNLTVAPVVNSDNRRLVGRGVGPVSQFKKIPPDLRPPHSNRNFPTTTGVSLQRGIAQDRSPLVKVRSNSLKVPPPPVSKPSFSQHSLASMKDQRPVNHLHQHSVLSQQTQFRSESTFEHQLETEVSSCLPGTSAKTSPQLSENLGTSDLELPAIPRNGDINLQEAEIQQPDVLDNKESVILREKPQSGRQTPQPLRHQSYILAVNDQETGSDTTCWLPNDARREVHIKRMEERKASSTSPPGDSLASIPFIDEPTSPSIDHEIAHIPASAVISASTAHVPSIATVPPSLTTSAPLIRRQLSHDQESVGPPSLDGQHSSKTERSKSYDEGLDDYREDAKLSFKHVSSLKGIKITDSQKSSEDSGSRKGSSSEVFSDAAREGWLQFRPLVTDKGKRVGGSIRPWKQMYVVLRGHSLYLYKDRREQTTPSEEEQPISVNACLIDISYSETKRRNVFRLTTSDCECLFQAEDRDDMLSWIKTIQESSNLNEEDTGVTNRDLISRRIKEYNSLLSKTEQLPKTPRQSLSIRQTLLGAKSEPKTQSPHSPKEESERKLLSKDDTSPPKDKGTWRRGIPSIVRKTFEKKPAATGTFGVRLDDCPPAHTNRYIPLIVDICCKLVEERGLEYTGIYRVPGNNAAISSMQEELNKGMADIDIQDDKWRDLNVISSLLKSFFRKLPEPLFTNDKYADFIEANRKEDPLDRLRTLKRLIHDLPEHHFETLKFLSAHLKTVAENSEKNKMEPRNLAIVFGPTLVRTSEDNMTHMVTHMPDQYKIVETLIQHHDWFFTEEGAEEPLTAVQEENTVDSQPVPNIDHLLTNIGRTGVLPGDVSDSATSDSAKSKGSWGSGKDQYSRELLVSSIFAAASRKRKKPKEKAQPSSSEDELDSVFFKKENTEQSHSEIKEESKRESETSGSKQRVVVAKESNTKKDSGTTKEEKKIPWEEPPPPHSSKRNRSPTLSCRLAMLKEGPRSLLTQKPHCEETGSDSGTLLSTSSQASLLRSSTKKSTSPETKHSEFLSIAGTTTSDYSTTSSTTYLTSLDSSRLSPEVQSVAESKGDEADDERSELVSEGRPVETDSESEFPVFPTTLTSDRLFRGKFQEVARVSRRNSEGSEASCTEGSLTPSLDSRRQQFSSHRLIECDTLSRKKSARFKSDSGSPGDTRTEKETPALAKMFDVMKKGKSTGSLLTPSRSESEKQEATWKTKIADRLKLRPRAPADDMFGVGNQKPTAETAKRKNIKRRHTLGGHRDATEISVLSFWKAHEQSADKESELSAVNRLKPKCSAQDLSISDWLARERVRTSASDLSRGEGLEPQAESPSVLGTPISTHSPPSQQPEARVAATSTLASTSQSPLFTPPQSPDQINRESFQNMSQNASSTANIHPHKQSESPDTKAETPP
UniProt Q3TJD7: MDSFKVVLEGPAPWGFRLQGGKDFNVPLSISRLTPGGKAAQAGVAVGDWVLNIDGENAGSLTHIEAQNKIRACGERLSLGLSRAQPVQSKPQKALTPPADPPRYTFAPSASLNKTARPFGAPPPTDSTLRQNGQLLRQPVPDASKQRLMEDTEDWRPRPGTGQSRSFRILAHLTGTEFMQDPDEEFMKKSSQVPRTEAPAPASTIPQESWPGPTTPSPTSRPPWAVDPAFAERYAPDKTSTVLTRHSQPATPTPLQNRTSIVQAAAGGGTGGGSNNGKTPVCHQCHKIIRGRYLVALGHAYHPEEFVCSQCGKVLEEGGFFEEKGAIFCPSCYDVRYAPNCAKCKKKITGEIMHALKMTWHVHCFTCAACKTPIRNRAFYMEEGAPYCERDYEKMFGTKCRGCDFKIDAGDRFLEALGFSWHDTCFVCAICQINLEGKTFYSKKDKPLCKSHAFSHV
UniProt Q80U72: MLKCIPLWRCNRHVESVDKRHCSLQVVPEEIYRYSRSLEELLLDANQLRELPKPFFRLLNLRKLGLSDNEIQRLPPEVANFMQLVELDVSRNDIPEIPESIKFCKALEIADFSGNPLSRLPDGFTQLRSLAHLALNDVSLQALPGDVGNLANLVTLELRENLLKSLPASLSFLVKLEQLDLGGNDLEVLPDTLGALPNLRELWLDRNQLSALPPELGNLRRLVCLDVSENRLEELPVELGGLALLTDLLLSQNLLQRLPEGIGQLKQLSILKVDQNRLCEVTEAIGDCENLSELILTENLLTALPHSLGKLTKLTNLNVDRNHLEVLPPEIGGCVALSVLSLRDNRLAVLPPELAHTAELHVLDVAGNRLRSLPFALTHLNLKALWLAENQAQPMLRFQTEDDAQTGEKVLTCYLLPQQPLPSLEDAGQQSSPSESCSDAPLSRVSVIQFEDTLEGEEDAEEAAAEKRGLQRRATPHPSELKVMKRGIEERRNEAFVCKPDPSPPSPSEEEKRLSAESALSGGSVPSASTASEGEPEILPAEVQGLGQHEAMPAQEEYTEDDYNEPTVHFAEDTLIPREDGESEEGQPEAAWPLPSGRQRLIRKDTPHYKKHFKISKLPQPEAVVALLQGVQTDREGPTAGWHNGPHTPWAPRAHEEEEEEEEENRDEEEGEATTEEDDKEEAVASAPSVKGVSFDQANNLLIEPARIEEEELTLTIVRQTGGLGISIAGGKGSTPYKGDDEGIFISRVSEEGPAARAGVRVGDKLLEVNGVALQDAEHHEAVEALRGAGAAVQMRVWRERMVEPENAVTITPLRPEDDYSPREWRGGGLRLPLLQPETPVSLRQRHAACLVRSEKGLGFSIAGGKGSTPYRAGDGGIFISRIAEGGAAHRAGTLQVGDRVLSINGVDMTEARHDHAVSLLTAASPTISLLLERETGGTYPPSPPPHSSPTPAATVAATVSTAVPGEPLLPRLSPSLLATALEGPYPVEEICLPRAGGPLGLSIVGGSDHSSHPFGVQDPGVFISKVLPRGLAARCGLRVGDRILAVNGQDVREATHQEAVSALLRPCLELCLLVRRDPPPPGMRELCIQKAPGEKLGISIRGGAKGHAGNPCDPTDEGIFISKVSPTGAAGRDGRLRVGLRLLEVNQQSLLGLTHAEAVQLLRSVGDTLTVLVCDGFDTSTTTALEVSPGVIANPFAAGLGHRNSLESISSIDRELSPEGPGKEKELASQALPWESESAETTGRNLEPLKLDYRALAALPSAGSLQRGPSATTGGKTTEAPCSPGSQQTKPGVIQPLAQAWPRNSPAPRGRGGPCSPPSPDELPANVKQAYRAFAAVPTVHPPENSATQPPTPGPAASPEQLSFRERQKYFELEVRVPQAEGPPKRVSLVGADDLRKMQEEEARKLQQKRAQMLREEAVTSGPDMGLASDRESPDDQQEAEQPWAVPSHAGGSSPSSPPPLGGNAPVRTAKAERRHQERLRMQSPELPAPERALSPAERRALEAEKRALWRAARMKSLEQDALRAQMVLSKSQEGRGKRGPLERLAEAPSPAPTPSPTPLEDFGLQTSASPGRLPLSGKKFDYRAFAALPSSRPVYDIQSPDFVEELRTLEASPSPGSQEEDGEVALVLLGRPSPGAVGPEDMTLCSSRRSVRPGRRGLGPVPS

B1: Pdlim2 (protein, UniProt Q8R1G6 1-349)
chain: MALTVDVAGPAPWGFRISGGRDFHTPIIVTKVTERGKAEAADLRPGDIIVAINGQSAENMLHAEAQSKIRQSASPLRLQLDRSQTASPGQTNGEGSLEVLATRFQGSLRTHRDSQSSQRSACFSPVSLSPRPCSPFSTPPPTSPVALSKEDMIGCSFQSLTHSPGLAAAHHLTYPGHPTSQQAGHSSPSDSAVRVLLHSPGRPSSPRFSSLDLEEDSEVFKMLQENRQGRAAPRQSSSFRLLQEALEAEERGGTPAFVPSSLSSQASLPTSRALATPPKLHTCEKCSVNISNQAVRIQEGRYRHPGCYTCADCGLNLKMRGHFWVGNELYCEKHARQRYSMPGTLNSRA

Assays:
[1] = target: T1, HA-tagged wild-type Claudin-2 (mouse) (mouse) (UniProt O88552); experiment: affinity purification with mass spectrometry; anti-HA immunoprecipitation from 2776 cells expressing HA-tagged wild-type Claudin-2 or the ΔPDZ BD mutant; silver staining; mass spectrometry of excised gel pieces
T1 sequence: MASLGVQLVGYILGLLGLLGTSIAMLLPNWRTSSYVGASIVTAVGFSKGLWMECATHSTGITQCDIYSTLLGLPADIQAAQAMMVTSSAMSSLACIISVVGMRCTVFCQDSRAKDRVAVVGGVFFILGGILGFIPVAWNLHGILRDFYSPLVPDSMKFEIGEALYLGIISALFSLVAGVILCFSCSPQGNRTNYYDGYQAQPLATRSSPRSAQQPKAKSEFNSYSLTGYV

[2] = target: T2, HA-tagged Claudin-2 mutant lacking the PDZ-binding motif (mouse) (mouse) (UniProt O88552); experiment: as above
T2 sequence: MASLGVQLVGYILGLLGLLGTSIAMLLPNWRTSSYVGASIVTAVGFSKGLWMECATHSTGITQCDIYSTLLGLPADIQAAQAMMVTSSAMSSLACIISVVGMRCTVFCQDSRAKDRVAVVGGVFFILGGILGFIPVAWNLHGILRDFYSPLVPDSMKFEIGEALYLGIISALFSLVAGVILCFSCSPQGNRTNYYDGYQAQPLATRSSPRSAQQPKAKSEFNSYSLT

Molecule	binding [1]	binding [2]
Afadin (mouse, endogenous in 2776 cells) (from UniProt Q9QZQ1 1-1820)	binds	no binding
Arhgap21 (from UniProt Q6DFV3 1-1945)	binds	no binding
Pdlim7 (from UniProt Q3TJD7 1-457)	binds	no binding
Rims2 (from UniProt Q9EQZ7 1-1530)	binds	no binding
Scrib (from UniProt Q80U72 1-1665)	binds	no binding
B1	binds	no binding
